We go through one sequence from paper PMC4838387, “PolDIP2 interacts with human PrimPol and enhances its DNA polymerase activities”.

The target in this data set is T1, PrimPol24-354 (AEP catalytic domain) (human) (UniProt Q96LW4).
T1 sequence (looked up): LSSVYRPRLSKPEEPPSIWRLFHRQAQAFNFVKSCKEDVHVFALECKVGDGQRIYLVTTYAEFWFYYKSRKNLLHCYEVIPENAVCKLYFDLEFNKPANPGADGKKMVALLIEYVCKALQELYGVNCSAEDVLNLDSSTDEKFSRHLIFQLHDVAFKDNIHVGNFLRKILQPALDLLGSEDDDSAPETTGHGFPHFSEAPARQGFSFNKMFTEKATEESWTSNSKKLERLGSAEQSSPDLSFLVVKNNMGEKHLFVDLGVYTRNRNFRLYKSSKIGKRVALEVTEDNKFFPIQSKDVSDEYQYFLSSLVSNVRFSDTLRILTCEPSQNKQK
As to the kind of experiment: EMSA. Particulars: 200 nM PrimPol24-354 with PolDIP2 51-368: DNA binding not stimulated, substrate taken from Methods; EMSA: 10 mM Bis-Tris-propane-HCl pH 7.0, 10 mM MgCl2, 100 uM DTT, 20 nM DNA; 5% native PAGE, 0.5x TBE; binding temperature not stated; recombinant protein; residues 24-354; label: 5'-HEX on primer, 3'-biotin on template. (In EMSA bound probe runs differently from free probe, usually more slowly.)

For at least one entry, the source does not settle the construct or the ends of the probe. At least one verdict rests on a figure or table, not on a statement of the authors. Protein sequences can lack the tags named with them.

“TGTCGTCTGTTCGGTCGTTC / ACCGCGAACTTGAATTCTAGTTCAGTCTAAATGCTCTCAAGCACTGAGCAATTCACAACATATGGCTTTCGATTACCGAACGACCGAACAGACGACA [20/97-mer primer/template (HP-20 / ND-97)]”: the binding result is given as “binds”.
